Construct, isoform or probe ends are uncertain for at least one entry. For some assays here: Whether high values mean tight binding is not given here for every scale.
Legend:
MDCC-SSB G27C = MDCC-SSB G27C (UniProt P0AGE0); experiment: MDCC fluorescence titration; details: 50 nM tetramer, 100 or 200 mM NaCl, 3 mM MgCl2, apparent weaker than ssDNA70; 50 mM Tris-HCl pH 7.5, 3 mM MgCl2, 100 mM (or 200 mM) NaCl; MDCC titrations 25 C; recombinant protein
SSB(G26C) G27C = SSB(G26C) G27C (UniProt P0AGE0); experiment: tryptophan fluorescence quenching; details: apparent affinity, weaker than ssDNA70; 50 mM Tris-HCl pH 7.5, 3 mM MgCl2, 100 mM (or 200 mM) NaCl; MDCC titrations 25 C; recombinant protein; protein details: pET151 vector, His tag (HisTrap purified)

By UniProt entry, the sequences of proteins in these tests, tags left out. Where a name states a change or a piece, a line headed by the entry shows the natural chain unless it says otherwise.
UniProt P0AGE0: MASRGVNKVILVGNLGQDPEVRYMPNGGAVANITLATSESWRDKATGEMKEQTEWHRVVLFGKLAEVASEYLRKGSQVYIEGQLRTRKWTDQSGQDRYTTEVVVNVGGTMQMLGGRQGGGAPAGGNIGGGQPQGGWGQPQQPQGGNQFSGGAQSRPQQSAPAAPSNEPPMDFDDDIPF

## UUAGUUGUUCGUAGUGCUCGUCUGGCUCUGGAUUACCCGCUUAGUUGUUCGUAGUGCUCGUCUGGCUCUG [ssRNA70]
MDCC-SSB G27C
  binding signal (nM (saturation point)): 101
SSB(G26C) G27C
  Kd: 200 nM
